# The supplement of paper PMC12823440, “Inhibitors supercharge kinase turnover through native proteolytic circuits” (Nature, 2025)
# Sequences of proteins named here, by UniProt entry; tags and fusion partners are left off.
# UniProt P36888, whole entry: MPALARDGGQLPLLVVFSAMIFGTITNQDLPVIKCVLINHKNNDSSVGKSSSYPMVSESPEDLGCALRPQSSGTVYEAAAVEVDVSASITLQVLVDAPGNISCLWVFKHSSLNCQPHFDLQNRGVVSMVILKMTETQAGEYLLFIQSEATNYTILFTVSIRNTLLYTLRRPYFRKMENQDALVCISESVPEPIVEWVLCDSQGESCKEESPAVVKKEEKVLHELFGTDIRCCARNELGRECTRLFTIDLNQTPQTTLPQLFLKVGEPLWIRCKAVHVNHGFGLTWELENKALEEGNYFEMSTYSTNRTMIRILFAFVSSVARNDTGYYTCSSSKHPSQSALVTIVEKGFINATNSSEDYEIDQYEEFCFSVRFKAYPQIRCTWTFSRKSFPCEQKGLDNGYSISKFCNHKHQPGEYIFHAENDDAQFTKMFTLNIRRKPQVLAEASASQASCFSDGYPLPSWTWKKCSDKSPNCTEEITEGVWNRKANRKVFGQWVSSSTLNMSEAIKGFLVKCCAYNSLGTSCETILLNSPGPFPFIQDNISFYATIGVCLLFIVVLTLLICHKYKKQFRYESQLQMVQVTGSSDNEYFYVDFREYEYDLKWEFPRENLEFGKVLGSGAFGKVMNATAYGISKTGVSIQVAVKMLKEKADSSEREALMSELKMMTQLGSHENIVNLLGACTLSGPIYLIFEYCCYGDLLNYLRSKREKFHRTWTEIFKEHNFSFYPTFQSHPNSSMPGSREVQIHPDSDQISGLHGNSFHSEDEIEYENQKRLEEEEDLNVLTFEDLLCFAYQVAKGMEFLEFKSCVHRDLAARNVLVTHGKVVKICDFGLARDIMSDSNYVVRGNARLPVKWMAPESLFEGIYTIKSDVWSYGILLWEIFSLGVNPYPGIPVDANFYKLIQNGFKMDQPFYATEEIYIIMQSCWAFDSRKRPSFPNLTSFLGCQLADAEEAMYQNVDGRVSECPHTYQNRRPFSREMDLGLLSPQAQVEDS
# This is one part of the list. Hit calls seldom repeat between salt and free forms of one compound.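 Kinases were expressed as nanoluciferase fusions in K562 cells and luminescence was read every 4 h between 2 and 18 h as percent of control, DMSO set to 100% and a positive control to 0%. A time point counts as decreased when the signal drops significantly (2 sigma). The hit call is the authors' own, does not follow from the count of time points alone, and its rule is not shown.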
# Biological target: FGR (UniProt P09769)
# Assay: kinase-Nluc reporter destabilization hit call (1 = scored as downregulated) (binary); higher = compound decreases kinase abundance
# Details: K562; 2-18 h
row,SMILES,kinase-Nluc reporter destabilization hit call
1,O=C1NC(=O)C(Cc2c[nH]c3c(Cl)cccc23)N1 (stereo not given) [Necroptosis-IN-1] (10 µM),inactive: 0
2,O=C1C=CC2=C3c4cc(O)c(O)cc4CC3(O)COC2=C1O (stereo not given) [Hematein] (10 µM),inactive: 0
3,NC(=O)c1cnc(N[C@@H]2CCCC[C@@H]2N)nc1Nc1cccc(-n2nccn2)c1 (2.5 µM),inactive: 0
4,COc1cc2nc(-c3cc(F)ccc3O)nc(N[C@@H]3CNC[C@H]3C(C)(C)O)c2cc1OC (2.5 µM),inactive: 0
5,CN1CCN(Cc2ccc(-c3cn(C4CCC(O)CC4)c4nc(NCCC5CC5)ncc34)cc2)CC1 (stereo not given) (2.5 µM),inactive: 0
6,O=S(=O)(c1ccc(O)cc1O)N1Cc2cc(O)cc(O)c2C1 (10 µM),inactive: 0

# Biological target: FLT3 (UniProt P36888)
# Assay: as above
# Details: K562; 2-18 h
row,SMILES,kinase-Nluc reporter destabilization hit call
1,CC(C)Cn1ncc2cc(Oc3ccc(F)cc3F)c(C(=O)NCCN(C)C)cc21 [p38α inhibitor 1] (10 µM),inactive: 0
2,CNc1cc2c(Nc3cccc(Br)c3)ncnc2cn1 (10 µM),inactive: 0
3,CN1C(=O)[C@@H](NC(=O)c2cc(Cc3ccccc3)on2)COc2ccccc21 (10 µM),inactive: 0
4,CC(C1CC1)n1cnc2c(NCc3cccc(C(F)(F)F)c3)nc(NCCN(C)C)nc21 (stereo not given) (10 µM),inactive: 0
5,Cc1n[nH]c2ncc(C(=O)N3CCC[C@H]3c3ccc(Cl)cc3)cc12 (10 µM),inactive: 0
6,COc1ccc(Br)c(C=O)c1O [6-Bromo-2-hydroxy-3-methoxybenzaldehyde] (10 µM),inactive: 0
7,Oc1ccc(-c2cnc3ccc(NCc4ccco4)nn23)cc1 [IRAK inhibitor 2] (2.5 µM),inactive: 0
8,C[C@H](Nc1cc2c(-c3ccc4c(c3)OCO4)noc2cn1)c1ccccc1 (10 µM),inactive: 0
9,Nc1ccc(C(=O)Nc2cccc(-c3nc(N4CCOCC4)c4oc5ncccc5c4n3)c2)cn1 (10 µM),inactive: 0
10,CCOC(=O)c1c(N2CCc3ccc(OC)cc3C2)oc(C=C2C=Nc3ncccc32)c1O (10 µM),inactive: 0
11,Cc1ncc(-c2cc(F)c(O)c(F)c2)cc1-c1cc(F)c(O)c(F)c1 (10 µM),inactive: 0
12,N=C(NC(=N)N1CCCC1)Nc1ccc(OC(F)(F)F)cc1 (10 µM),inactive: 0
13,CC1(C)CN(C(=O)c2ccc(-c3cccc4nc(NC(=O)C5CC5)nn34)cc2)C1 [Solcitinib] (10 µM),inactive: 0
14,COc1c(O)cc(O)c2c(=O)cc(-c3ccccc3)oc12 [Wogonin] (10 µM),active: 1
15,O=C(NC[C@H](O)CO)c1ccncc1Nc1ccc(I)cc1F [Pimasertib] (10 µM),inactive: 0
16,CCNC(=O)Nc1ccc(-c2nc3c(c(N4CCOC[C@@H]4C)n2)CCN(C2COC2)C3)cc1 (2.5 µM),inactive: 0
17,COc1cc2ncnc(Nc3cc(Br)c(O)c(Br)c3)c2cc1OC (2.5 µM),inactive: 0

row,SMILES,kinase-Nluc reporter destabilization hit call
1,Nc1ccc(-c2nc3ccc(-c4nc5ccc(N)cc5[nH]4)cc3[nH]2)cc1 (10 µM),inactive: 0
2,CCCCC(=O)OCC(=O)[C@]1(O)Cc2c(O)c3c(c(O)c2[C@@H](O[C@H]2C[C@H](NC(=O)C(F)(F)F)[C@H](O)[C@H](C)O2)C1)C(=O)c1c(OC)cccc1C3=O [Valrubicin] (10 µM),inactive: 0
3,CCOC(=O)c1c(Nc2ccccc2Cl)oc(/C=C2\C=Nc3ncccc32)c1O (10 µM),inactive: 0
4,Nc1[nH]nc2nnc(-c3c(-c4ccccc4)nn4ccccc34)cc12 (10 µM),inactive: 0
5,COc1cc2nc(NC3CC3)nc(NC3CCN(C(C)C)CC3)c2cc1OC (10 µM),inactive: 0
6,S=C(NCc1ccc2c(c1)OCO2)N1CCN(c2ncnc3c2oc2ccccc23)CC1 [Amuvatinib] (2.5 µM),inactive: 0
7,CC(=O)O[C@@H]1[C@@H](OC(C)=O)[C@@H](O)[C@H](Oc2c(-c3ccc(O)cc3)oc3cc(O)cc(O)c3c2=O)O[C@H]1C (10 µM),inactive: 0
8,CC1=CC(=O)C(C(C)C)=C/C1=N/OC(=O)c1ccccc1C [Poloxin] (2.5 µM),inactive: 0
9,Fc1ccc(Cl)cc1-c1nc(Nc2ccncc2)c2nccnc2n1 (10 µM),inactive: 0
10,CN1CCC(Nc2ccc(C(=O)Nc3cc(-c4ccc5c(c4)OCO5)[nH]n3)cc2)CC1 (10 µM),inactive: 0
11,O=C(COc1ccc(Cl)cc1)NC1CCC(NC(=O)COc2ccc(Cl)cc2)CC1 (stereo not drawn) [ISRIB (trans-isomer)] (10 µM),inactive: 0
12,Cc1ccc(C2CC(=O)NC(SCC(=O)Nc3nccs3)=C2C#N)cc1 (stereo not given) [Necrostatin-34] (10 µM),inactive: 0
13,O=C1NC(=O)C(Cc2c[nH]c3c(Cl)cccc23)N1 (stereo not given) [Necroptosis-IN-1] (10 µM),inactive: 0
14,O=C1C=CC2=C3c4cc(O)c(O)cc4CC3(O)COC2=C1O (stereo not given) [Hematein] (10 µM),inactive: 0
15,NC(=O)c1cnc(N[C@@H]2CCCC[C@@H]2N)nc1Nc1cccc(-n2nccn2)c1 (2.5 µM),inactive: 0
16,COc1cc2nc(-c3cc(F)ccc3O)nc(N[C@@H]3CNC[C@H]3C(C)(C)O)c2cc1OC (2.5 µM),inactive: 0
17,O=S(=O)(c1ccc(O)cc1O)N1Cc2cc(O)cc(O)c2C1 (10 µM),inactive: 0
